Results published in the supplement of paper PMC4962491.
± gives the standard deviation of the averaged measurements. The list shows a part of the results, in another mix than the full data. This data set is noisy: repeats of one test often differ as much as different tests do.

System: FaDu
Test: mitochondrial oxygen consumption rate normalised to cell number, Z score over the library; higher = higher oxygen consumption (negative = OCR reduction)
Conditions: treatment time 24 h, assay medium: 5 mM galactose, 5 mM pyruvate, 4 mM glutamine
Experimental: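 Primary screen: FaDu cells were incubated 24 h with Pharmakon 1600 / TDI oncology set compounds at 2 or 10 uM. Mitochondrial-specific OCR (basal minus 2 uM antimycin A) was measured on a Seahorse XF96 in assay medium with 5 mM galactose, 5 mM pyruvate and 4 mM glutamine, then corrected for Hoechst cell number and expressed as a Z score […]. Compounds that cut cell number by >66% were excluded. Two repeats.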

SMILES | mitochondrial oxygen consumption rate normalised (2 µM) | mitochondrial oxygen consumption rate normalised (10 µM)
N#CCC(=O)NN | 1.21 ± 0.42 | 
CC(N)CCCC(C)(C)O (centres undefined) | -0.9811 ± 0.0052 | 
O=C(O)c1cc(/N=N/c2ccc(S(=O)(=O)Nc3ccccn3)cc2)ccc1O | -0.925 ± 0.63 | 
CN/C(=N\CCSCc1nc[nH]c1C)NC#N | 0.0519 ± 0.65 | 
C/C(=C\C(=O)OCCCCCCCCC(=O)O)C[C@@H]1OC[C@H](C[C@@H]2O[C@H]2[C@@H](C)[C@H](C)O)[C@@H](O)[C@H]1O | 0.136 ± 0.57 | 
CC1/C=C/C=C/C=C/C=C/C=C/C=C/C=C/C(OC2O[C@H](C)[C@@H](O)[C@H](N)[C@@H]2O)CC(O)C(C(=O)O)C(O)CC(=O)CC(O)CC(O)CC(O)CC(=O)CCCC(=O)CC(=O)OC1C(C)CC(C)C(O)CC(=O)c1ccc(N)cc1 (some centres undefined) | -0.749 ± 0.52 | 
O=C(O)c1ccccc1O | 1.52 ± 1.4 | 
O=c1oc2cc(O)ccc2s1 | -0.555 ± 0.6 | 
CCOc1ccc2nc(S(N)(=O)=O)sc2c1 | 0.564 ± 0.15 | 
C[C@@H]1C[C@H]2[C@@H]3CCC4=CC(=O)C=C[C@]4(C)[C@@]3(Cl)[C@@H](O)C[C@]2(C)[C@@]1(OC(=O)c1ccco1)C(=O)CCl | -0.0272 ± 0.76 | 
C[N+](C)(C)CC(=O)O | -0.591 ± 0.54 | 
O=C(O)c1ccccc1C(=O)Nc1ccc(S(=O)(=O)Nc2nccs2)cc1 | 1.21 ± 0.29 | 
OCCN(CCO)c1nc(N2CCCCC2)c2nc(N(CCO)CCO)nc(N3CCCCC3)c2n1 | -0.668 ± 0.35 | 
CN1CCN(C(c2ccccc2)c2ccccc2)CC1 | 0.55 ± 0.032 | 
C[C@]12CC[C@@H]3c4ccc(OC(=O)c5ccccc5)cc4CC[C@H]3[C@@H]1CC[C@@H]2O | 0.561 ± 0.12 | 
C[C@@H]1C[C@H]2[C@@H]3CCC4=CC(=O)C=C[C@]4(C)[C@@]3(F)[C@@H](O)C[C@]2(C)[C@@]1(O)C(=O)COP(=O)(O)O | -0.545 ± 0.62 | 
CCN(CC)CCNC(C(=O)OCCC(C)C)c1ccccc1 (centres undefined) | -0.573 ± 0.39 | 
Cc1c(-c2cnccn2)ssc1=S | -0.732 ± 0.15 | -0.416 ± 0.25
C(=C\c1ccccc1)/CN1CCN(C(c2ccccc2)c2ccccc2)CC1 | 0.217 ± 0.79 | 
N[C@@H](Cc1cc(I)c(Oc2ccc(O)c(I)c2)c(I)c1)C(=O)O [LIOTHYRONINE (L- isomer) SODIUM] | 0.587 ± 0.92 | 
N[C@@H](Cc1cc(I)c(Oc2ccc(O)c(I)c2)c(I)c1)C(=O)O | 0.693 ± 0.15 | 
Nc1c2ccccc2nc2ccccc12 | 0.247 ± 0.15 | -1.9 ± 0.35
CN1CCC(=C2c3ccccc3Sc3ccccc32)CC1 | -0.432 ± 0.25 | 

Random excerpt: 3 records from the list
SMILES | mitochondrial oxygen consumption rate normalised (2 µM) | mitochondrial oxygen consumption rate normalised (10 µM)
C(=C\c1ccccc1)/CN1CCN(C(c2ccccc2)c2ccccc2)CC1 | 0.217 ± 0.79 | 
O=C(O)c1ccccc1C(=O)Nc1ccc(S(=O)(=O)Nc2nccs2)cc1 | 1.21 ± 0.29 | 
C[C@]12CC[C@@H]3c4ccc(OC(=O)c5ccccc5)cc4CC[C@H]3[C@@H]1CC[C@@H]2O | 0.561 ± 0.12 | 

Next part

SMILES | mitochondrial oxygen consumption rate normalised (2 µM) | mitochondrial oxygen consumption rate normalised (10 µM)
C[C@H](CCC(=O)O)[C@H]1CC[C@H]2[C@@H]3[C@@H](O)C[C@@H]4C[C@H](O)CC[C@]4(C)[C@H]3CC[C@]12C | -0.501 ± 1.1 | 
CC1CC(OC(=O)c2ccccc2O)CC(C)(C)C1 (centres undefined) | -0.723 ± 0.39 | 
NC[C@@H]1O[C@@H](O[C@H]2[C@H](O)[C@@H](O[C@H]3O[C@H](CO)[C@@H](O)[C@H](N)[C@H]3O)[C@H](N)C[C@@H]2N)[C@@H](O)[C@H](O)[C@H]1O | -0.735 ± 0.2 | 
CC[C@@H]1C(=O)OC[C@@H]1Cc1cncn1C | 2.5 ± 1.8 | 
CN1C(=O)CC[C@H]1c1cccnc1 | -0.202 ± 0.068 | 
NS(=O)(=O)c1cc2c(cc1C(F)(F)F)NCNS2(=O)=O | -0.63 ± 0.11 | 
C=C(C)[C@H]1CC=C(C)CC1 | 0.777 ± 1.4 | 
NC(=O)CCCCC1CCSS1 (centres undefined) | -0.862 ± 0.23 | 1.43 ± 0.3
CCC1(C)OC(=O)N(C)C1=O (centres undefined) | 0.316 ± 0.96 | 0.0479 ± 0.05
N[C@@H](Cc1c[nH]c2ccccc12)C(=O)O | 0.839 ± 0.29 | 
O=C(OOC(=O)c1ccccc1)c1ccccc1 | 0.0605 ± 0.52 | 
CC(O)Cn1cnc2c1c(=O)n(C)c(=O)n2C (centres undefined) | -0.154 ± 0.48 | 
CS(=O)(=O)OCCCCOS(C)(=O)=O [Busulfan] | 0.456 ± 0.81 | 0.391 ± 1.2
CS(=O)(=O)OCCCCOS(C)(=O)=O | -0.447 ± 0.12 | 0.716 ± 1.1
Cc1c(NC(=O)c2cccnc2)c(=O)n(-c2ccccc2)n1C | 0.733 ± 1.2 | 
CNC(=O)c1cc(Oc2ccc(NC(=O)Nc3ccc(Cl)c(C(F)(F)F)c3)cc2)ccn1 [sorafenib] | 0.191 ± 1 | 
COc1cccc2c1C(=O)c1c(O)c3c(c(O)c1C2=O)C[C@@](O)(C(C)=O)C[C@@H]3O[C@H]1C[C@H](N)[C@H](O)[C@H](C)O1 | -2.99 ± 1.2 | 
CC(=O)NS(=O)(=O)c1ccc(N)cc1 | -0.833 ± 0.24 | 
Cc1cn([C@H]2C=C[C@@H](CO)O2)c(=O)[nH]c1=O | 1.25 ± 0.035 | 
C=CC1=C(C(=O)O)N2C(=O)[C@@H](NC(=O)/C(=N\O)c3csc(N)n3)[C@H]2SC1 | -0.23 ± 0.69 | 
CN1C(CCl)Nc2cc(Cl)c(S(N)(=O)=O)cc2S1(=O)=O (centres undefined) | 0.185 ± 1.2 | 
OCc1ccccc1O[C@@H]1O[C@H](CO)[C@@H](O)[C@H](O)[C@H]1O | 0.73 ± 0.4 | 0.956 ± 0.64
CC(=O)OCC(=O)[C@@]12OC(C)(C)O[C@@H]1C[C@H]1[C@@H]3C[C@H](F)C4=CC(=O)C=C[C@]4(C)[C@@]3(F)[C@@H](O)C[C@@]12C | -0.228 ± 0.55 | 0.605 ± 0.52
